According to article PMC5324553:
Results are given in words; binding and its absence hold for the method and conditions named. In cells and extracts the contact can be indirect. Sequences can lack the tags named with a protein.

Protein sequences, listed by entry. Tags and fused reporters are not part of them. Lines headed by an entry give the natural chain unless they say otherwise; changes in a name come on top.
UniProt P10749: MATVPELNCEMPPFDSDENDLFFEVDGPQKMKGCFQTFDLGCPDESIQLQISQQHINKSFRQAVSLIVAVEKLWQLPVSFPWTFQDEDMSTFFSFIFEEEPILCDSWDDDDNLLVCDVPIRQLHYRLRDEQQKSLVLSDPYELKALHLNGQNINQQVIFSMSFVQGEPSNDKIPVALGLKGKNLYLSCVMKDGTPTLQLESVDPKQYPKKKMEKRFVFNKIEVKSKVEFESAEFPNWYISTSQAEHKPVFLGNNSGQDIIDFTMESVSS

Biological target: T1, Flag-USP50 (ubiquitin-specific peptidase 50) (UniProt Q70EL3)
T1 sequence: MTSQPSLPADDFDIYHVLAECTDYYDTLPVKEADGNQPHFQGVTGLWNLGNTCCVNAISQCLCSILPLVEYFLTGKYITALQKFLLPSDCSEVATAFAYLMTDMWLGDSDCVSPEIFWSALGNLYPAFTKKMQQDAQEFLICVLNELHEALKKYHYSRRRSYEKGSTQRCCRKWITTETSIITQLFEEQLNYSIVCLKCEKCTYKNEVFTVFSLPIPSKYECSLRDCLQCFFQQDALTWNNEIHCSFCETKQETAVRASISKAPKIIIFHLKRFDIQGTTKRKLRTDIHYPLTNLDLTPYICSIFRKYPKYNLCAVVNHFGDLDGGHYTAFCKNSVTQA
Test: co-IP; HEK293 cells co-transfected with an HA-tagged inflammasome component and Flag-USP50; lysates immunoprecipitated with Flag antibody and immunoblotted

binding: no binding
Substance: HA-pro-IL-1β (from UniProt P10749)
